These are yes or no findings as the source states them, for the method shown. Binding seen in cells or lysates may run through a third protein. Some binding calls cover weakened binding; strength is not graded here.
Experiments:
[1] = target: Calcium‐dependent phospholipid‐binding protein‐III (CPNE3), endogenous (human (endogenous in A549 and H1299)) (UniProt O75131); assay: co-IP; endogenous proteins; A549 lysates immunoprecipitated with anti-CPNE3 or anti-MET antibodies (control IgG), followed by immunoblotting
[2] = target: c‐MET receptor tyrosine kinase, endogenous (human (endogenous in A549)) (UniProt P08581); assay: as above

Sequences of proteins named here, by UniProt entry; tags and fusion partners are left off. Residues count along the entry.
UniProt O75131: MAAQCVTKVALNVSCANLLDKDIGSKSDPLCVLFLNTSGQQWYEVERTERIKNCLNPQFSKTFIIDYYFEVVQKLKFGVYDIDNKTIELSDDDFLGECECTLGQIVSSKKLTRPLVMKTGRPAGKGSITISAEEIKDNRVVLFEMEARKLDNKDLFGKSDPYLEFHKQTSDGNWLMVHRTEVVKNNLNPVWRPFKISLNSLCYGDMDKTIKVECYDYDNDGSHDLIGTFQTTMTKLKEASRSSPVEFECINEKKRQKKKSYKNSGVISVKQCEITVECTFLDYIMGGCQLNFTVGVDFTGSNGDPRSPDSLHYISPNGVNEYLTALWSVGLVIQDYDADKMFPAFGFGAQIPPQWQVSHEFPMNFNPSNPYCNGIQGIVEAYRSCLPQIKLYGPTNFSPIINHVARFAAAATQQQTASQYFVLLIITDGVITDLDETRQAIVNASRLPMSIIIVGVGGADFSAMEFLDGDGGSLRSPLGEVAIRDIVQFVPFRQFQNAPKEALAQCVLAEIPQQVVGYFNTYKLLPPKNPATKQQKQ
UniProt P08581, residues 25-1390: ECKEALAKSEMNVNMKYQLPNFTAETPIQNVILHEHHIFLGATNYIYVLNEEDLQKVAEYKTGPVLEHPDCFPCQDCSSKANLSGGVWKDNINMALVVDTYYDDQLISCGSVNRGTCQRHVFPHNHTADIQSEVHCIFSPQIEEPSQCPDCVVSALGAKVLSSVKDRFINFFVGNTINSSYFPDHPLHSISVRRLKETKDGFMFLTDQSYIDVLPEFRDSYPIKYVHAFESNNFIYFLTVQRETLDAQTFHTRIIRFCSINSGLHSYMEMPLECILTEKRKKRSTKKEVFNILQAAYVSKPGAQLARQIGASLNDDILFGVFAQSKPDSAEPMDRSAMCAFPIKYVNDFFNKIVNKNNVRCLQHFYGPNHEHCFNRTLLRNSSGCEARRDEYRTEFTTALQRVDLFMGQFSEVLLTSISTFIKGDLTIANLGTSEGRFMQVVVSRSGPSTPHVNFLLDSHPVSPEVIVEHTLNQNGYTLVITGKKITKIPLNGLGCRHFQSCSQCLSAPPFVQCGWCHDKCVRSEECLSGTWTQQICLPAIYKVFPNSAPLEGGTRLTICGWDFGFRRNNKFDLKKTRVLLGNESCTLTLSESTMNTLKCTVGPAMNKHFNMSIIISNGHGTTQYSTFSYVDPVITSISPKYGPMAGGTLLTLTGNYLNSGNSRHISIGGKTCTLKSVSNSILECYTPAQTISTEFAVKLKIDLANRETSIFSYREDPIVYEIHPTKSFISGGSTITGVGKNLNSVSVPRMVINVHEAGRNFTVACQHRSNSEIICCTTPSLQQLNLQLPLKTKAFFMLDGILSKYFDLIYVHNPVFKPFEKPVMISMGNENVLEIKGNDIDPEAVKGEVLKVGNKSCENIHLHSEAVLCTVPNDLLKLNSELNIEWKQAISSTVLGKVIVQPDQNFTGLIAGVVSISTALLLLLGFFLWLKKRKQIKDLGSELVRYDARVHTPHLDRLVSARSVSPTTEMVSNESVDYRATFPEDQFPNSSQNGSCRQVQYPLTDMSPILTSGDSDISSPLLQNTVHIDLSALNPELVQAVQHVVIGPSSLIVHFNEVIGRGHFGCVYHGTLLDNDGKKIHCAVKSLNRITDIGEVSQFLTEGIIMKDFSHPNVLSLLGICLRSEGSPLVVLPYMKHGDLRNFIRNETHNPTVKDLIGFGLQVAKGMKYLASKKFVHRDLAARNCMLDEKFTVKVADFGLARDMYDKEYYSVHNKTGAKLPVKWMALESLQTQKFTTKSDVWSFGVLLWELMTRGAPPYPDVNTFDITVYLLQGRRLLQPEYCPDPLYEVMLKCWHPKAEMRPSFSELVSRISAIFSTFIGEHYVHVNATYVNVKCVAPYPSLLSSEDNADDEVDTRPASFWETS

Row | binding [1] | binding [2] | Substance
1 | binds | – | c‐MET receptor tyrosine kinase, endogenous (from UniProt P08581 25-1390)
2 | – | binds | Calcium‐dependent phospholipid‐binding protein‐III (CPNE3), endogenous (from UniProt O75131 1-537)
